# These are yes or no findings as the source states them, for the method shown. In cells and extracts the contact can be indirect. Here binding means that the protein was enriched with, or labelled near, the bait; the list need not be complete.
# Protein sequences, listed by entry. Tags and fused reporters are not part of them.
# UniProt Q8R4B8: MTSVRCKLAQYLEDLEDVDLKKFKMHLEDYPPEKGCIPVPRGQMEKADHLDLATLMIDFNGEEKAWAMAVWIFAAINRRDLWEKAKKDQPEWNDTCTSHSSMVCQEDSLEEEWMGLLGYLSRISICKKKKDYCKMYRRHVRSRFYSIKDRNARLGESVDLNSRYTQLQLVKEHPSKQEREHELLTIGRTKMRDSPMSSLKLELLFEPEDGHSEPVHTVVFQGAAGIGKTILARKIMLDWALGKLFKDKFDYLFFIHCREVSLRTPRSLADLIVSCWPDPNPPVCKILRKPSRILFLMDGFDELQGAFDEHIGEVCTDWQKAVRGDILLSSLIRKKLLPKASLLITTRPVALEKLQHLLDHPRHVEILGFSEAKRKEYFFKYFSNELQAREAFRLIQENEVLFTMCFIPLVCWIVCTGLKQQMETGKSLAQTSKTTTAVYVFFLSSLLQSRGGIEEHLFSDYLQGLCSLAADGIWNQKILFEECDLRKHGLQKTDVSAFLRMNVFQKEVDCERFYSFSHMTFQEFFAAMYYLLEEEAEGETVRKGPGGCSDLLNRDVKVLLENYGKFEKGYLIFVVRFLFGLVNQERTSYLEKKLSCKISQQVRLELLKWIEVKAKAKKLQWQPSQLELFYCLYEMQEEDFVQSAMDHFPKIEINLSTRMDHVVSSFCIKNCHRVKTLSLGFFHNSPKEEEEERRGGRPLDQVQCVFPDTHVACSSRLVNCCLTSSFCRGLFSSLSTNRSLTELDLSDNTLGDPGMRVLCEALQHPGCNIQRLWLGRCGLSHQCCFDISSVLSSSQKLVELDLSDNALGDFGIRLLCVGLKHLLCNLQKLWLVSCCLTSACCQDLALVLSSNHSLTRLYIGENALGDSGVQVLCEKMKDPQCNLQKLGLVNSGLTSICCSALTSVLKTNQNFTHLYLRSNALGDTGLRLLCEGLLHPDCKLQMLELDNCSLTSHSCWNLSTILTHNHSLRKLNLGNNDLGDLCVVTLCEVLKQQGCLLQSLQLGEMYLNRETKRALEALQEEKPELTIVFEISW
# Biological target: NLR family pyrin domain containing 3 (NLRP3), endogenous in mouse BMDMs (mouse (endogenous in BMDM)) (UniProt Q8R4B8)
# Assay: affinity purification with mass spectrometry; endogenous NLRP3 immunoprecipitated with NLRP3 antibody on protein A/G magnetic beads from lysates of BMDMs (LPS-primed, or LPS-primed and nigericin-stimulated); IgG control; washes with 100 and 500 mM NaCl IP buffer; SAINTexpress cutoff >= 0.9
row,binding,Binder
1,binds,"OAS1A, endogenous in mouse BMDMs (protein, UniProt P11928 1-367) MEHGLRSIPAWTLDKFIEDYLLPDTTFGADVKSAVNVVCDFLKERCFQGAAHPVRVSKVVKGGSSGKGTTLKGKSDADLVVFLNNLTSFEDQLNRRGEFIKEIKKQLYEVQHERRFRVKFEVQSSWWPNARSLSFKLSAPHLHQEVEFDVLPAFDVLGHVNTSSKPDPRIYAILIEECTSLGKDGEFSTCFTELQRNFLKQRPTKLKSLIRLVKHWYQLCKEKLGKPLPPQYALELLTVFAWEQGNGCYEFNTAQGFRTVLELVINYQHLRIYWTKYYDFQHQEVSKYLHRQLRKARPVILDPADPTGNVAGGNPEGWRRLAEEADVWLWYPCFIKKDGSRVSSWDVPTVVPVPFEQVEENWTCILL"
2,binds,"FAM120A, endogenous in mouse BMDMs (protein, UniProt Q6A0A9 1-1112) MGVQGFQDYIEKHCPSAVVPVELQKLARGSLVGGGRQRPPQTPLRLLVDADNCLHRLYGGFYTDWVSGGQWNHMLGYLAALAKACFGGNIELFVFFNGALEKARLHEWVKRQGNERQTAQQIVSHVQNKGTPPPKVWFLPPVCMAHCIRLALIRFHVKVAQSIEDHHQEVIGFCRENGFHGLVAYDSDYALCNIPYYFSAHALKLSRNGKSLTTSQYLMHEVAKQLDLNPNRFPIFAALLGNHILPDEDLASFHWSLLGPEHPLASLKVRAHQLVLPPCDVVIKAVADYVRNIHDTSDLDAIAKDVFQHSQSRTDDKVIRFKRAVGYYSATSKPMPFHPPHYLARPNPFGMPGMVPPYVPPQMLNIPQTSLQAKPAVPQVPSPGGTPGQAPYPYSLSEPALTLDTSGKNLTEQNSYSNIPHEGKHTPLYERSSPINLAQSGSPNHVDSAYFPGSSTSSSSDNDEGGGGATNHISGNKIGWEKTGSHAEPLARGDPGDQVKVEGSSTASSGSQLAEGKGSHMGTVQPIPCLLSMPTRNHMDITTPPLPPVAPEVLRVAEHRHKKGLMYPYIFHILTKGEIKIAVSIEDEANKDLPPAALLYRPVRQYVYGVLFSLAESRKKTERLAFRKNRLPPEFSPLIIKEWAAYKGKSPQTPELVEALAFREWTCPNLKRLWLGKAVEDKNRRMRAFLACMRSDTPAMLNPANVPTHLMVLCCVLRYMVQWPGARILRRQELDAFLAQALSPKLYEPDQLQELKIDNLDPRGIQLSALFMSGVDMALFANDACGQPIPWEHCCPWMYFDGKLFQSKLLKASREKTPLIDLCDGQAEQAAKVEKMRQSILEGLSFSRQNHPLPFPPPPALPFYPASVYPRHFGPVPPSQGRGRGFAGVCGFGGHYGETVATGPYRAFRVTAASGHCGAFSGSDSSRTSKSQGGVQPIPSQGGKLEIAGTVVGHWAGSRRGRGGRGPFPLQVVSVGGPARGRPRGVISTPVIRTFGRGGRYYGRGYKSQGAIQGRPPYAASAEEVAKELKSKSGESKSSAVSLAENGVMAEEKPVPQLNGSTGDPRVPSHSESALNNDSKPCNTNPHLNALSTDSACRREAALEAAVLNKEE"
3,binds,"RAB32, endogenous in mouse BMDMs (protein, UniProt Q9CZE3 1-223) MAGEGLGQQGASATAAPETREHLFKVLVIGELGVGKTSIIKRYVHQLFSQHYRATIGVDFALKVLNWDSRTLVRLQLWDIAGQERFGNMTRVYYKEALGAFVVFDISRSSTFDAVLKWKNDLDSKVHLPNGSPIPAVLLANKCDQKKDNSQSPSQMDQFCKDHGFTGWFETSAKDNINIDEATRFLVENMLANQQSFPSEEIDLDRIKLVEEPPTTKPRSQCC"
4,binds,"ABHD12, endogenous in mouse BMDMs (protein, UniProt Q99LR1 1-398) MRKRTEPVTLEHERCAASGSSSSGSAAAALDADCSLKQNLRLAGKGTAEPHSASDAGMKRALGRRKSLWFRLRKILLCVLGFYIAIPFLVKLCPGIQAKLIFLNFVRVPYFIDLKKPQDQGLNHTCNYYLQPEDDVTIGVWHTIPSVWWKNAQGKDQMWYEDALASNHAIILYLHGNAGTRGGDHRVELYKVLSSLGYHVVTFDYRGWGDSVGTPSERGMTYDALHVFDWIKARSGDNPVYIWGHSLGTGVATNLVRRLCERETPPDALILESPFTNIREEAKSHPFSVIYRYFPGFDWFFLDPITSSGIKFANDENMKHISCPLLILHAEDDPVVPFHLGRKLYNIAAPSRSFRDFKVQFIPFHSDLGYRHKYIYKSPELPRILREFLGKSEPERQH"
